The target of the assay is T1, CTCF (human (endogenous in HCT116)) (UniProt P49711).
T1 sequence: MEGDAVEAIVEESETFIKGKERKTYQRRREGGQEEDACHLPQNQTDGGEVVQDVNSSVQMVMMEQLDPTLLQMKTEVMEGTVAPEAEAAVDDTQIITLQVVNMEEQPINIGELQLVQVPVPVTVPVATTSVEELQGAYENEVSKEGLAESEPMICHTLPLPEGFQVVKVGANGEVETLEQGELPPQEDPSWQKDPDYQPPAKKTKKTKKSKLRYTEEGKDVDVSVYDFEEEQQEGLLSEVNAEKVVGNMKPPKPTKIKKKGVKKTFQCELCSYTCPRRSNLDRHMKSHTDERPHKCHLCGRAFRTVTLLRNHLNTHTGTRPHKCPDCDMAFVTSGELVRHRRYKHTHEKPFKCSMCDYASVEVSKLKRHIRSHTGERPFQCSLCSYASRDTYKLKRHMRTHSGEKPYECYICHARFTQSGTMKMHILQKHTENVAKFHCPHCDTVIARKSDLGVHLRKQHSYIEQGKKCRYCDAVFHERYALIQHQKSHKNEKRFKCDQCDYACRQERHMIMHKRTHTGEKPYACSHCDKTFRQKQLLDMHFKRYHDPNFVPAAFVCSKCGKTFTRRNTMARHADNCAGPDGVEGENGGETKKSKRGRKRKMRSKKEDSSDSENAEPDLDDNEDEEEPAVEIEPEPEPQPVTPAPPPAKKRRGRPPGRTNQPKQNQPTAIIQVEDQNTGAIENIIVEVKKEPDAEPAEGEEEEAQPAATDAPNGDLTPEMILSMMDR
Kind of assay: co-IP.

No constants are given. Whether binding was seen depends on the method and setting. Binding seen in cells or lysates may run through a third protein. Some binding calls cover weakened binding; strength is not graded here. Where a sequence is shown, tags or fusion partners need not be part of it.

B1: SA2 (Stromalin Antigen 2, STAG2) (protein, UniProt Q8N3U4 1-1231)
chain: MIAAPEIPTDFNLLQESETHFSSDTDFEDIEGKNQKQGKGKTCKKGKKGPAEKGKGGNGGGKPPSGPNRMNGHHQQNGVENMMLFEVVKMGKSAMQSVVDDWIESYKHDRDIALLDLINFFIQCSGCKGVVTAEMFRHMQNSEIIRKMTEEFDEDSGDYPLTMAGPQWKKFKSSFCEFIGVLVRQCQYSIIYDEYMMDTVISLLTGLSDSQVRAFRHTSTLAAMKLMTALVNVALNLSINMDNTQRQYEAERNKMIGKRANERLELLLQKRKELQENQDEIENMMNAIFKGVFVHRYRDAIAEIRAICIEEIGIWMKMYSDAFLNDSYLKYVGWTMHDKQGEVRLKCLTALQGLYYNKELNSKLELFTSRFKDRIVSMTLDKEYDVAVQAIKLLTLVLQSSEEVLTAEDCENVYHLVYSAHRPVAVAAGEFLYKKLFSRRDPEEDGMMKRRGRQGPNANLVKTLVFFFLESELHEHAAYLVDSMWDCATELLKDWECMNSLLLEEPLSGEEALTDRQESALIEIMLCTIRQAAECHPPVGRGTGKRVLTAKEKKTQLDDRTKITELFAVALPQLLAKYSVDAEKVTNLLQLPQYFDLEIYTTGRLEKHLDALLRQIRNIVEKHTDTDVLEACSKTYHALCNEEFTIFNRVDISRSQLIDELADKFNRLLEDFLQEGEEPDEDDAYQVLSTLKRITAFHNAHDLSKWDLFACNYKLLKTGIENGDMPEQIVIHALQCTHYVILWQLAKITESSSTKEDLLRLKKQMRVFCQICQHYLTNVNTTVKEQAFTILCDILMIFSHQIMSGGRDMLEPLVYTPDSSLQSELLSFILDHVFIEQDDDNNSADGQQEDEASKIEALHKRRNLLAAFCKLIVYTVVEMNTAADIFKQYMKYYNDYGDIIKETMSKTRQIDKIQCAKTLILSLQQLFNEMIQENGYNFDRSSSTFSGIKELARRFALTFGLDQLKTREAIAMLHKDGIEFAFKEPNPQGESHPPLNLAFLDILSEFSSKLLRQDKRTVYVYLEKFMTFQMSLRREDVWLPLMSYRNSLLAGGDDDTMSVISGISSRGSTVRSKKSKPSTGKRKVVEGMQLSLTEESSSSDSMWLSREQTLHTPVMMQTPQLTSTIMREPKRLRPEDSFMSVYPMQTEHHQTPLDYNRRGTSLMEDDEEPIVEDVMMSSEGRIEDLNEGMDFDTMDIDLPPSKNRRERTELKPDFFDPASIMDESVLGVSMF
Consider B1, for which the binding result is “binds”.

(Values after paper doi:10.1101/2021.02.20.432055.)
